Measured values: PMC6481325, “Novel N,N-dialkyl cyanocinnamic acids as monocarboxylate transporter 1 and 4 inhibitors” (Oncotarget, 2019)

System: MDA-MB-231 cells
Test: Fluorescence microscopy with MitoTracker red, MDA-MB-231
Type: cell-based
Details: 30 μM, 1 h

With COc1cc(N(c2ccccc2)c2ccccc2)ccc1/C=C(\C#N)C(=O)O [Phenyl (9)] the “cellular uptake (fluorescence microscopy)” value was “internalized” and the “intracellular localization (fluorescence microscopy, MitoTracker red)” value was “concentrated in areas near mitochondria, but did not appear to co-localize with most mitochondria”.
